PubChem BioAssay AID652243 | Drosophila RNAi Screening Center | 2013

- Aim: 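Fly regulators of androgen-dependent reporter output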 (primary screen)
- System: Drosophila S2R+ cells
- Knock-down reagent: long dsRNA against Drosophila genes
- Time to read-out: 72 h (48 h, then 24 h hormone)
- Treatment: synthetic androgen R1881 at 10 nM for 24 h
- Measured: 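Firefly light from an androgen-responsive reporter and Renilla control light per well, raw and unnormalised, for each of two replicates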
- Direction: firefly reporter light: higher = more light from androgen-responsive reporter; Renilla control light: higher = more constitutive control signal (cell number, transfection)
- Hit rule: 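Hit when the log firefly-to-Renilla ratio dropped or increased by a fixed fold versus the mean of GFP or LacZ controls across duplicate plates; lowering cut given as 1.5 and as 3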
- Meaning of the calls: active = hit: reporter lowered or raised; inactive = no hit
The deposit covers about 24,000 reagents; shown is a random part of those that have a named target and a result. In the full data, 246 (1%) got an active call. 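Plates not normalised; calls are printed but the firefly/Renilla ratio behind them is not deposited; fold cut for lowering reported inconsistently.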 Raw values are not corrected between plates. A number with no mark means an inactive call. The numbers tell different reagents against one gene apart. Names joined by + are all predicted targets of the reagent. No sequences are given here. The record does not give: the amount of reagent.

Depletion of Larp7 (GeneID 44900) #1 gave: firefly reporter light, replicate 1 = 1.13e5; firefly reporter light, replicate 2 = 97340; Renilla control light, replicate 1 = 1.74e6; Renilla control light, replicate 2 = 1.75e6.
With knock-down of Larp7 (GeneID 44900) #2, the screen gave firefly reporter light, replicate 1 = 2.55e5; firefly reporter light, replicate 2 = 3.33e5; Renilla control light, replicate 1 = 7.70e5; Renilla control light, replicate 2 = 6.42e5.
Against His2B:CG33894 + His2B:CG33872 + His2B:CG33902 + 20 more, the entry reads firefly reporter light, replicate 1 = 1.04e5; firefly reporter light, replicate 2 = 1.21e5; Renilla control light, replicate 1 = 90491; Renilla control light, replicate 2 = 81099.
With knock-down of CG33203 (GeneID 43414) #1 the results were firefly reporter light, replicate 1 = 2.59e5; firefly reporter light, replicate 2 = 2.31e5; Renilla control light, replicate 1 = 2.35e6; Renilla control light, replicate 2 = 4.09e6.
After knock-down of CG33203 (GeneID 43414) #2, the record shows firefly reporter light, replicate 1 = 4.40e5; firefly reporter light, replicate 2 = 5.84e5; Renilla control light, replicate 1 = 1.32e6; Renilla control light, replicate 2 = 1.66e6.
After knock-down of CG33203 (GeneID 43414) #3 the results were firefly reporter light, replicate 1 = 6.01e5; firefly reporter light, replicate 2 = 8.59e5; Renilla control light, replicate 1 = 7.92e5; Renilla control light, replicate 2 = 9.75e5.

2 neighbouring reagents from above, for reference:
Larp7 (GeneID 44900) #1: firefly reporter light, replicate 1 = 1.13e5; firefly reporter light, replicate 2 = 97340; Renilla control light, replicate 1 = 1.74e6; Renilla control light, replicate 2 = 1.75e6
Larp7 (GeneID 44900) #2: firefly reporter light, replicate 1 = 2.55e5; firefly reporter light, replicate 2 = 3.33e5; Renilla control light, replicate 1 = 7.70e5; Renilla control light, replicate 2 = 6.42e5

Further entries follow:
CG4957 (GeneID 34374) #1 showed firefly reporter light, replicate 1 = 1.45e5; firefly reporter light, replicate 2 = 1.25e5; Renilla control light, replicate 1 = 1.49e6; Renilla control light, replicate 2 = 1.32e6.
Knock-down of CG4957 (GeneID 34374) #2 resulted in: firefly reporter light, replicate 1 = 3.56e5; firefly reporter light, replicate 2 = 6.11e5; Renilla control light, replicate 1 = 1.21e6; Renilla control light, replicate 2 = 1.21e6.
SA2 (GeneID 38167) scored firefly reporter light, replicate 1 = 41238; firefly reporter light, replicate 2 = 80120; Renilla control light, replicate 1 = 7.75e5; Renilla control light, replicate 2 = 1.28e6.
obst-F (GeneID 40209) #1 gave firefly reporter light, replicate 1 = 2.21e5; firefly reporter light, replicate 2 = 2.39e5; Renilla control light, replicate 1 = 1.72e6; Renilla control light, replicate 2 = 1.92e6.
Depletion of obst-F (GeneID 40209) #2 came out at: firefly reporter light, replicate 1 = 7.00e5; firefly reporter light, replicate 2 = 1.05e6; Renilla control light, replicate 1 = 1.42e6; Renilla control light, replicate 2 = 1.60e6.
kri (GeneID 38655) gave firefly reporter light, replicate 1 = 8.00e5; firefly reporter light, replicate 2 = 7.69e5; Renilla control light, replicate 1 = 1.94e6; Renilla control light, replicate 2 = 2.14e6.
RpL38 (GeneID 3355144) scored firefly reporter light, replicate 1 = 1.04e5; firefly reporter light, replicate 2 = 1.08e5; Renilla control light, replicate 1 = 1.04e6; Renilla control light, replicate 2 = 1.16e6.
Silencing of CG14853 (GeneID 41771) #1 came out at: firefly reporter light, replicate 1 = 4.56e5; firefly reporter light, replicate 2 = 3.62e5; Renilla control light, replicate 1 = 3.37e6; Renilla control light, replicate 2 = 2.67e6.
After knock-down of CG14853 (GeneID 41771) #2, the screen gave firefly reporter light, replicate 1 = 6.88e5; firefly reporter light, replicate 2 = 5.21e5; Renilla control light, replicate 1 = 1.58e6; Renilla control light, replicate 2 = 1.38e6.
